The other results are listed elsewhere or left out.
compound: NC(=O)Nc1cc(-c2cccc(F)c2)sc1C(=O)N[C@H]1CCCNC1; assay: log2 fold change, soluble protein after heating vs DMSO (PISA); higher = thermal stabilisation; K562 lysate, 10 uM; active = over 0.2 and 3.5 SD of the protein, either way, in both replicates (recomputed)
How it was run: (§1)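 To prepare the extract, K562 pellets were dounce-homogenised in PBS pH 7.4 with 1 mM MgCl2, giving crude material at 1 mg/mL protein. This was treated with 10 μM compound for 30 min, then heated in aliquots for 3 min over 48°C-58°C before pooling and addition of NP-40 to 0.5% at 4°C. Centrifugation at 21,000xg for 90 min left soluble protein in the supernatant, which TMTpro 16plex LC-MS/MS quantified with equalised channel sums. Results are log-two fold changes in thermal stability compared with solvent controls, from duplicates.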

Target	log2 fold change
PPP4R4 (UniProt Q6NUP7)	inactive: 0.171
PRKCQ (UniProt Q04759)	inactive: -0.214
PPP1R3D (UniProt O95685)	inactive: -0.008
PPP5C (UniProt P53041)	inactive: -0.023
PRMT9 (UniProt Q6P2P2)	inactive: 0.051
PRKAR1B (UniProt P31321)	inactive: -0.09
PRORP (UniProt O15091)	inactive: 0.096
PRNP (UniProt P04156)	inactive: -0.09
PRPF19 (UniProt Q9UMS4)	inactive: -0.017
PPP2R5B (UniProt Q15173)	inactive: -0.025
PRKD3 (UniProt O94806)	inactive: -0.174
PPP6R1 (UniProt Q9UPN7)	inactive: 0.045
PPP6C isoform 3 (UniProt O00743)	inactive: -0.009
PRKACA (UniProt P17612)	active: 0.637
PRKD2 isoform 3 (UniProt Q9BZL6)	inactive: -0.115
PPP2R3B (UniProt Q9Y5P8)	inactive: 0.003

Target	log2 fold change
PRKDC (UniProt P78527)	inactive: 0.004
PRG4 (UniProt Q92954)	inactive: 0.057
PPP1R13L (UniProt Q8WUF5)	inactive: 0.036
PRMT1 (UniProt Q99873)	inactive: -0.002
PROS1 (UniProt P07225)	inactive: 0.022
PPP1R12B isoform 6 (UniProt O60237)	inactive: 0.006
PRKCA (UniProt P17252)	inactive: -0.067
PPP2CB (UniProt E5RHC1)	inactive: -0.022
PPM1H (UniProt Q9ULR3)	inactive: -0.041
PRADC1 (UniProt Q9BSG0)	inactive: -0.031
PPP2R2D (UniProt Q66LE6)	inactive: 0.027
PRMT7 (UniProt Q9NVM4)	inactive: 0.023
PPP2R2A isoform 2 (UniProt P63151)	inactive: -0.007
PPT1 (UniProt P50897)	inactive: 0.026
PPP1CB (UniProt P62140)	inactive: 0.012
PRPF6 (UniProt O94906)	inactive: 0.044

compound: NC(=O)c1cnc(N[C@@H]2CCCC[C@@H]2N)nc1Nc1cccc(-n2nccn2)c1; assay: as above
How it was run: as §1

Target	log2 fold change
PPP4R4 (UniProt Q6NUP7)	inactive: 0.005
PRKCQ (UniProt Q04759)	inactive: -0.02
PPP1R3D (UniProt O95685)	inactive: -0.005
PPP5C (UniProt P53041)	inactive: -0.004
PRMT9 (UniProt Q6P2P2)	inactive: -0.028
PRKAR1B (UniProt P31321)	inactive: 0.003
PRKX (UniProt P51817)	inactive: 0.129
PRORP (UniProt O15091)	inactive: 0.064
PRNP (UniProt P04156)	inactive: -0.125
PRPF19 (UniProt Q9UMS4)	inactive: -0.013
PPP2R5B (UniProt Q15173)	inactive: 0.011
PRKD3 (UniProt O94806)	inactive: 0.001
PPP6R1 (UniProt Q9UPN7)	inactive: 0.005
PPP6C isoform 3 (UniProt O00743)	inactive: 0.005
PRKACA (UniProt P17612)	inactive: 0.273
PRKD2 isoform 3 (UniProt Q9BZL6)	inactive: 0.06
PPP2R3B (UniProt Q9Y5P8)	inactive: -0.054

Target	log2 fold change
PPP1R14C (UniProt Q8TAE6)	inactive: -0.184
PRKDC (UniProt P78527)	inactive: 0.123
PRG4 (UniProt Q92954)	inactive: -0.09
PPP1R13L (UniProt Q8WUF5)	inactive: -0.004
PRMT1 (UniProt Q99873)	inactive: -0.009
PROS1 (UniProt P07225)	inactive: 0.009
PPP1R12B isoform 6 (UniProt O60237)	inactive: 0.05
PRKCA (UniProt P17252)	active: 0.408
PPP2CB (UniProt E5RHC1)	inactive: -0.229
PPM1H (UniProt Q9ULR3)	inactive: 0
PRADC1 (UniProt Q9BSG0)	inactive: -0.016
PPP2R2D (UniProt Q66LE6)	inactive: -0.099
PRMT7 (UniProt Q9NVM4)	inactive: 0.028
PPP2R2A isoform 2 (UniProt P63151)	inactive: -0.006
PPT1 (UniProt P50897)	inactive: 0.001
PPP1CB (UniProt P62140)	inactive: -0.032
PRPF6 (UniProt O94906)	inactive: 0.022

compound: NC1(c2ccc(-c3nc4ccn5c(=O)[nH]nc5c4cc3-c3ccccc3)cc2)CCC1; assay: as above
How it was run: as §1

Target	log2 fold change
PPP4R4 (UniProt Q6NUP7)	inactive: -0.189
PRKCQ (UniProt Q04759)	inactive: 0.006
PPP1R3D (UniProt O95685)	inactive: 0.106
PPP5C (UniProt P53041)	inactive: -0.017
PRMT9 (UniProt Q6P2P2)	inactive: 0.017
PRKAR1B (UniProt P31321)	inactive: -0.008
PRORP (UniProt O15091)	inactive: -0.179
PRNP (UniProt P04156)	inactive: 0.094
PRPF19 (UniProt Q9UMS4)	inactive: 0.019
PPP2R5B (UniProt Q15173)	inactive: -0.015
PRKD3 (UniProt O94806)	inactive: 0.054
PPP6R1 (UniProt Q9UPN7)	inactive: -0.009
PPP6C isoform 3 (UniProt O00743)	inactive: 0.006
PRKACA (UniProt P17612)	inactive: -0.038
PRKD2 isoform 3 (UniProt Q9BZL6)	inactive: -0.01
PRKDC (UniProt P78527)	inactive: -0.073
PPP1R13L (UniProt Q8WUF5)	inactive: 0.02
PRMT1 (UniProt Q99873)	inactive: 0.013
PROS1 (UniProt P07225)	inactive: -0.007
PPP1R12B isoform 6 (UniProt O60237)	inactive: -0.075
PRKCA (UniProt P17252)	inactive: -0.006
PPM1H (UniProt Q9ULR3)	inactive: -0.07
PRADC1 (UniProt Q9BSG0)	inactive: 0.013
PPP2R2D (UniProt Q66LE6)	inactive: -0.002
PRMT7 (UniProt Q9NVM4)	inactive: 0.025
PPP2R2A isoform 2 (UniProt P63151)	inactive: -0.044
PPT1 (UniProt P50897)	inactive: -0.038
PPP1CB (UniProt P62140)	inactive: 0.008
PRPF6 (UniProt O94906)	inactive: -0.019

From the supplement of paper PMC10849652
